The campaign covered roughly 2,800 compounds. Fewer than 10 were called active. Roughly 7% stayed inconclusive and do not appear here. Calls come from the whole dose curve; as a rule, active = well fitted inhibition curve with a large enough effect; inconclusive = small, poorly fitted or top-dose-only effect; inactive = no such curve, though single readings can be large or run the other way. Some of the results follow.

Sequences of proteins named here, by UniProt entry; tags and fusion partners are left off. A change or cut given only in a name is not applied to a line headed by its entry.
UniProt C7C422: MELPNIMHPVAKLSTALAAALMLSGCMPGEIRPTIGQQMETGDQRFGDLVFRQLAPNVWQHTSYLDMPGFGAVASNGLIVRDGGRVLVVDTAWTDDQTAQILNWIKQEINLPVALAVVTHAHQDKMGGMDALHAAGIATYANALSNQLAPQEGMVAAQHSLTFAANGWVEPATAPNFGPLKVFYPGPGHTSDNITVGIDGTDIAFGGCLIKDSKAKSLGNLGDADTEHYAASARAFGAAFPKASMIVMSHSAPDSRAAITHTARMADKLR

The target of the experiment is Metallo-beta-lactamase type 2 (Klebsiella pneumoniae) (UniProt C7C422). The experiment can be described thus: qHTS to identify inhibitors of the New Delhi Metallo-beta-lactamase (NDM): Nitrocefin screen against the machine-based learning selections. Note: % of control where 0% means no effect. The note with it: NDM-1 enzyme, nitrocefin hydrolysis, absorbance 485 nm; at 57.5 µM (top of the series) unless noted. From the text:
Assay Submitter (PI): James Inglese Ph.D., Patricia Dranchak Ph.D., Mahesh Aitha Ph.D. Assay Development and Screening Technology Laboratory (ADST) National Center for Advancing Translational Sciences (NCATS), Rockville, MD National Institute of Health (NIH), Bethesda, Maryland The metallo-beta-lactamases (MBL) are a main antibiotic resistance mechanism evolved by bacteria. There is an urgent clinical need for MBL inhibitors to mitigate this growing threat. To support a machine-based learning study, qHTS has been used to experimentally test inhibitors identified by prediction tools.
PROTOCOL TABLE (as described by Inglese et al., 2007) SEQUENCE No. (e.g., 1, 2, 3, etc.); […] (e.g., enzyme, Incubation, Reagent, etc.); VALUE; DESCRIPTION Primary Screen 1; NDM-1; 4 uL of 3 nM enzyme [2 nM final] in 50 mM HEPES (pH 7.0), 1 uM […], 0.01% Tween20; Use BioRaptr to dispense into two sets of Aurora black, clear bottom high base 1536-well plates 2; Compounds; 23 nL; Use Pin Tool (Wako) to transfer DMSO control and library compounds in DMSO 3; Incubate; >30 min 4a; Reagent; 2 uL of 50 uM nitrocefin [16.7 uM final] to one set of assay plates 4b; Reagent; 2 uL of 150 uM meropenem [50 uM final] to second set of assay plates 5a; Incubate; 15 min 5b; Incubate; 30 min 6a; Detector; Absorbance at 485 nm (bandwidth = 5 nm, 25 flashes/well) on Tecan Infinity 6b; Detector; Absorbance at 300 nm (bandwidth = 5 nm, 25 flashes/well) on Tecan Infinity NOTES (numbers refer to sequence above) 1; Column 1 of each plate received assay buffer without enzyme and columns 2-48 received enzyme for a final assay concentration of 2 nM. 2; Control plate contained DMSO in columns 1, 2, 3, and 4. 3; Compound interaction with enzyme. 4; Nitrocefin and meropenem substrates were prepared in the same assay buffer as step 1 for a final assay concentration of 16.7 uM and 50 uM, respectively, and added to all wells across respective sets of assay plates. 5; Default reader settings were applied for absorbance read at 485 nm (nitrocefin) or 300 nm (meropenem), bandwidth = 5 nm, 25 flashes/well. References: Inglese J, Shamu CE, Guy RK. 2007. Reporting data from high-throughput screening of small-molecule libraries. Nat Chem Biol. doi:10.1038/nchembio0807-438 Yasgar A, Shinn P, Jadhav A, Auld D, Michael S, Zheng W, Austin CP, Inglese J, Simeonov A. 2008. Compound Management for Quantitative High-Throughput Screening. J Lab Autom 13:79 - 89. doi:10.1016/j.jala.2007.12.004
On the technique in general: In qHTS, concentration-response curves come from the screen itself.
With `O=C(Nc1nccs1)[C@H]1CN2CCC1C[C@@H]2Cn1cc(CC2CCCCC2)nn1` (stereo partly specified), the activity, negative = inhibition was inactive: -9.51%.
The same measure for `COc1ccccc1-c1cc([C@H]2CN3CC[C@H]2C[C@@H]3CNC(=O)N2CCOCC2)n(C)n1`: inactive: -5.49%; for `CC(C)NC(=O)NC[C@H]1C[C@@H]2CCN1C[C@@H]2CN1CCN(c2ccccn2)CC1`: inactive: 1.8%; for `Cc1ccc(S(=O)(=O)NC[C@H]2C[C@@H]3CCN2C[C@@H]3CN2CCCCC2)cc1`: inactive: 1.68%.
On to `COc1cc2c(cc1OCc1ccncc1)NC(=O)C21CCN(Cc2ccccc2O)CC1`, for which the activity, negative = inhibition is inactive: 8.75% [at 38.4 µM].
Consider `CSCC(=O)Nc1ccc2n(c1=O)C[C@H]1C[C@@H]2CN(C(=O)COc2ccccc2)C1`, for which the activity, negative = inhibition was inactive: -7.98%.
The same measure for `Cc1cc(NCCc2c[nH]c(=O)[nH]c2=O)n2nccc2n1`: inactive: -15.6% [at 38.4 µM]; for `CNc1ncc(C(=O)N2C[C@H]3COc4ccccc4C[C@@]3(C(=O)O)C2)cn1`: inactive: -5.63% [at 38.4 µM].
The same measure for `CC[C@H]1CN2CC[C@H]1C[C@@H]2CNS(=O)(=O)c1ccc2ccccc2c1`: inactive: -8.66%; for `O=C1CO[C@H]2CN(Cc3ccncc3)C[C@H]2N1Cc1ccccc1`: inactive: -0.866%; for `CC[C@H]1CN2CC[C@H]1C[C@@H]2COC(=O)Nc1ccc(C(C)(C)C)cc1`: inactive: 290%.
For `CCC(CC)c1cc([C@H]2CN3CC[C@H]2C[C@@H]3CNC(=O)C2CC2)nc(-c2ccncc2)n1` the value was inactive: -1.13%.
In the case of `COc1ccc(-c2cc([C@H]3CN4CC[C@H]3C[C@@H]4CNC(=O)C3CCC3)n(C)n2)cc1OC`, the activity, negative = inhibition was inactive: -3.58%.
The same measure for `CCOc1ccc(CC(=O)N2CCC3(CC2)c2nccn2-c2ccccc2CN3C)cc1`: inactive: -1.24% [at 38.4 µM]; for `CN(C)c1ccc(C(=O)NC[C@H]2C[C@@H]3CCN2C[C@@H]3CN2CCCCC2)cc1`: inactive: -22.5%; for `CCC(CC)c1cc([C@H]2CN3CC[C@H]2C[C@@H]3CNC(=O)c2ccc(N(C)C)cc2)nc(-c2ccncc2)n1`: inactive: 6.71% [at 38.4 µM].
For `O=C(NC1CC1)[C@H]1CN2CCC1C[C@@H]2Cn1cc(CSc2ccccc2)nn1` (stereo partly specified) the value was inactive: 0.0308%; for `CN(C)Cc1cn(C[C@H]2C[C@@H]3CCN2C[C@@H]3C(=O)Nc2ccccc2)nn1`, inactive: -0.783%; for `CSc1ccc(-c2ccc(=O)n3c2[C@@H]2C[C@@H](CN(S(C)(=O)=O)C2)C3)cc1`, inactive: -21.1%.
The same measure for `CC(=O)c1ccc(NC(=O)NC[C@H]2C[C@@H]3CCN2C[C@@H]3c2cc(-c3ccco3)nc(C)n2)cc1`: inactive: 0.355% [at 38.4 µM].
For the molecule `CC(C)NC(=O)[C@H]1CN2CCC1C[C@@H]2Cn1cc(CN(C)Cc2ccccc2)nn1` (stereo partly specified), the activity, negative = inhibition is inactive: -0.154%.
The same measure for `CCCCc1cn(C[C@H]2CC3CCN2C[C@@H]3C(=O)NCc2ccccc2)nn1` (stereo partly specified): inactive: -0.354%; for `CCN(CC)C[C@H]1CN2CC[C@H]1C[C@@H]2CNC(=O)Nc1ccccc1`: inactive: 3.43%; for `O=C(c1cncnc1)N1C[C@@H]2C[C@H](C1)c1c(-c3ccc4ccccc4c3)ccc(=O)n1C2`: inactive: -0.638%.
Take `COCCC(=O)N1[C@H]2CC[C@@H]1c1cnc(-c3ccccc3)nc1C2`: the activity, negative = inhibition is inactive: 1.8% [at 38.4 µM].
On to `Cc1ccccc1-c1ccc2n(c1=O)C[C@H]1C[C@@H]2CN(C(=O)NC2CCCCC2)C1`, for which the activity, negative = inhibition was inactive: 1.63%.
Take `COCC1(CNC2CCN(C)CC2)C[C@@H](O)[C@@H](O)C1` (stereo partly specified): the activity, negative = inhibition is inactive: -9.03% [at 76.7 µM].
As to `Cc1ccc2c(n1)N(C)[C@H](CO)CCN(CC(C)C)C2`, the activity, negative = inhibition was inactive: -9.9% [at 76.7 µM].
The same measure for `Cc1ccc(C(=O)NC[C@H]2C[C@@H]3CCN2C[C@@H]3c2cc(-c3ccccc3)nn2C)cc1`: inactive: 2.19%; for `CCCS(=O)(=O)NC[C@H]1C[C@@H]2CCN1C[C@@H]2c1cc(-c2ccccc2Br)nc(C)n1`: inactive: -2.5% [at 38.4 µM]; for `COCCNC(=O)[C@H]1CN2CCC1C[C@@H]2Cn1cc(-c2cccc(N)c2)nn1` (stereo partly specified): inactive: -0.524%.
For `COCC(=O)NC[C@H]1C[C@@H]2CCN1C[C@@H]2CN1CCC(C)CC1` the value was inactive: -11.9%.
For `CC[C@H]1CN2CC[C@H]1C[C@@H]2CNS(=O)(=O)c1cccc(C#N)c1` the value was inactive: -1.45%; for `CN(C)Cc1ccccc1-c1ccc2n(c1=O)C[C@H]1C[C@@H]2CN(C(=O)c2cnccn2)C1`, inactive: 0.328%; for `COCCNC(=O)[C@H]1CN2CCC1C[C@@H]2Cn1cc(-c2ccc(-c3ccccc3)cc2)nn1` (stereo partly specified), inactive: 0.288% [at 38.4 µM].
For `CC(=O)c1ccc(NC(=O)NC[C@H]2C[C@@H]3CCN2C[C@@H]3CN2CCC(Cc3ccccc3)CC2)cc1`, the activity, negative = inhibition was inactive: 2.7% [at 38.4 µM].

For the origin of these results see PubChem BioAssay AID1794844 (National Center for Advancing Translational Sciences (NCATS), 2023).
